Measured values published in PubChem BioAssay AID485318 (Broad Institute, 2010).
Fewer than 10 of roughly 1,400 compounds were called active.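 Rule for the calls: active = fluorescence-lowering compounds whose fitted half-maximal concentration is at or below ten times the highest valid dose tested; inconclusive = flat curve at 30 to 70% inhibition, or poor fit; inactive = the rest.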 This is one part of the list.

The chains behind the UniProt entries cited, without tags or fusion partners. Where a name states a change or a piece, a line headed by the entry shows the natural chain unless it says otherwise.
UniProt O15379: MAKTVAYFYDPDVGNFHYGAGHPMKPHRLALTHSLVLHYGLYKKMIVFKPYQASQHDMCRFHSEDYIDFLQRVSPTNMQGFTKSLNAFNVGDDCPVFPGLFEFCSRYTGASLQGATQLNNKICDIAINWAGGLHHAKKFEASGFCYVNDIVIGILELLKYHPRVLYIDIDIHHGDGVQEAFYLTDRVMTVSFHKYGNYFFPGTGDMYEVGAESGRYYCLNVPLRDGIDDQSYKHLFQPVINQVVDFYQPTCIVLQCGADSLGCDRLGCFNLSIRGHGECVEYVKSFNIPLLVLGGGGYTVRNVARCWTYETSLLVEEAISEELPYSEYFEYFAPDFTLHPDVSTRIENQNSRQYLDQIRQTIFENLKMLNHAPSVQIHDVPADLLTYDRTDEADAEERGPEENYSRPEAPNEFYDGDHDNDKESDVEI

The molecules below were run against Histone deacetylase 3 (Homo sapiens) (UniProt O15379) (assay: inhibition of human HDAC3 enzymatic activity – biochemical, fluorescence, cherry-picked samples, counter-screen for JMJD2C/GASC1 demethylase inhibitor project, dose response (AID 485318;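 note: enzyme preincubated with compound before substrate and trypsin were added; 0% = neutral control wells and -100% = SAHA positive control wells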)). Conditions: recombinant HDAC3, fluorogenic peptide/trypsin coupled; at 12 µM (top of the series).

| Compound | activity change, negative = inhibition |
| --- | --- |
| COC(=O)C1=C(C)N(Cc2ccccc2)C(=NCCc2c[nH]c3ccccc23)N[C@H]1c1ccccc1 | inactive: 0.954% |
| COc1ccc(N2CCN(C(=O)c3nn(C)c4c3CS(=O)(=O)c3ccccc3-4)CC2)cc1 | inactive: -0.348% |
| COC(=O)c1ccccc1NC(=O)CC(NCc1ccccc1)C(=O)O (centres undefined) | inactive: -0.642% |
| CCn1nnc(NC(=O)c2cc3ccccc3o2)n1 | inactive: 0.0225% |
| CCc1ccc(NC(=O)N(CCN2CCOCC2)C2CCN(C(C)=O)CC2)cc1 | inactive: -0.0195% |
| CC(=O)C[C@@H](O)CC(=O)[C@@H]1OC(=O)[C@@H](C)C/C=C\Cc2ccccc21 | inactive: -0.334% |
| CSCCC(NS(=O)(=O)c1ccc2ccccc2c1)C(=O)O (centres undefined) | inactive: 0.834% |
| Nc1nc2n(n1)C(c1cccs1)CC(c1ccccc1)N2 (centres undefined) | inactive: 0.444% |
| CC(=O)OC(C(=O)NCc1ccc2c(c1)OCO2)c1ccccc1Cl (centres undefined) | inactive: -0.735% |
| COc1ccccc1NC(=O)COC(=O)/C=C/c1cccs1 | inactive: 0.282% |
| Cc1cc(C)c(S(=O)(=O)Nc2cc(SCC(=O)O)c(O)c3ccccc23)cc1C | inactive: 0.816% |
| O=C(COC(=O)c1ccccc1SCC(=O)N1CCCC1)NC1CCS(=O)(=O)C1 (centres undefined) | inactive: 0.18% |
| CCOc1ccccc1N(CC(=O)O)S(=O)(=O)c1ccc(C)cc1 | inactive: 0.686% |
| CCCNC(=O)c1ccccc1N1CCN(CCCCN2C(=O)C3CCCCN3C2=O)CC1 (centres undefined) | inactive: 0.555% |
| CCC(=O)Nc1cc2c(C)cc(=O)oc2cc1C | inactive: 0.351% |
| O=C1CC(CSc2ccc(Cl)cc2)=NN1 | inactive: 0.222% |
| CC1(C)[N+]([O-])=C2C(=[N+]([O-])C1(C)C)c1ccccc1/C2=N\O | inactive: 0.668% |
| COc1cccc(CNC(=O)c2cc3c(cc2Cl)N2CCCCCC2=NS3(=O)=O)c1 | inactive: 0.843% |
| CC1CCN(c2ccc3c(c2)S(=O)(=O)c2cccc(C(=O)NC4CC4)c2C3=O)CC1 | inactive: 0.857% |
| CCN(CC)CCCOc1ccc(C)cc1Br | inactive: 0.403% |
| CSc1ccc(C=NNc2ccc(S(=O)(=O)Nc3ccccc3C(=O)O)cc2[N+](=O)[O-])cc1 | inactive: 0.0382% |
| Cc1ccc(OCC(=O)Nc2ccccc2Sc2ccccc2)c([N+](=O)[O-])n1 | inactive: -8.1% |

Molecules shown so far that have a thiophene ring, fused or not (2):

| Compound | activity change, negative = inhibition |
| --- | --- |
| Nc1nc2n(n1)C(c1cccs1)CC(c1ccccc1)N2 (centres undefined) | inactive: 0.444% |
| COc1ccccc1NC(=O)COC(=O)/C=C/c1cccs1 | inactive: 0.282% |

Next records:

| Compound | activity change, negative = inhibition |
| --- | --- |
| COc1cc2c(cc1OC)CN(C(=O)CSc1n[nH]c(N)n1)CC2 | inactive: 0.262% |
| Cc1ccc2c(c1)c1c3n2CCCNC3CCC1 (centres undefined) | inactive: 0.108% |
| CC(C)(C)c1ccc(C(=O)N2CCC(C(=O)NCc3ccncc3)CC2)cc1 | inactive: 0.739% |
| Cc1ccc(C(=O)N2CCN(c3ccc(Cl)cc3)CC2)cc1 | inactive: -0.291% |
| COC(=O)[C@]1(Cc2ccccc2)N[C@H](CN(C)S(=O)(=O)c2ccc(F)cc2)[C@@H]2C(=O)N(Cc3ccccc3)C(=O)[C@@H]21 | inactive: 0.164% |
| CC(NC(=O)CCC(=O)c1ccc(F)cc1)C1CC2CCC1C2 (centres undefined) | inactive: 0.48% |
| CCN1C(=O)C(CC(=O)Nc2ccc(OC)cc2)N(CCc2ccccc2F)C1=S (centres undefined) | inactive: 0.838% |
| CC1(C)C2CCC1(CS(=O)(=O)N1CCN(c3ccccc3F)CC1)C(=O)C2 (centres undefined) | inactive: 0.137% |
| O=C(Cc1ccccc1)NNC(=O)c1cccs1 | inactive: 0.0777% |
| O=C(Nc1cccc2ccccc12)OC1C=CS(=O)(=O)C1 (centres undefined) | inactive: -0.311% |
| C[C@]12c3[nH]c4ccccc4c3CCN1C(=O)C(CC(=O)NCCN1CCOCC1)C[C@@H]2C(=O)N1CCCCC1 (some centres undefined) | inactive: 0.21% |
| COc1cccc(/C=C/C(=O)NCCc2ccc(OC)c(OC)c2)c1 | inactive: 0.228% |
| Cc1ccc2c(c1)C(=O)N1[C@H]3c4cc(Cl)ccc4OC[C@@H]3[C@H](c3ccccc3)[C@]1(C)C(=O)N2 | inactive: 0.114% |
| CCS(=O)(=O)Nc1ccc(C2=NN(C(=O)c3ccco3)C(c3ccc(C)cc3)C2)cc1 (centres undefined) | inactive: -0.125% |
| CCCCCCn1c(=O)[nH]c2nc3cc(N)ccc3nc2c1=O | inactive: -0.461% |
| Cc1ccc(CSc2ncnc3onc(C)c23)cc1 | inactive: -0.218% |
| C[C@@H]1CCCCCCCCC(=O)OCCN(C(=O)OC(C)(C)C)[C@H](C)CCCCCCCCC(=O)OCCN(C(=O)OC(C)(C)C)[C@H](C)CCCCCCCCC(=O)OCCN1C(=O)OC(C)(C)C | inactive: 0.233% |
| COc1ccc2sc(-c3ccc(S(C)(=O)=O)cc3)c(C#CCO)c2c1 | inactive: -0.136% |
| COc1ccc(OC)c(N(CC(=O)NCc2ccncc2)S(C)(=O)=O)c1 | inactive: -0.393% |
| CC(C)=CC(=O)O[C@@H]1Cc2c(ccc3ccc(=O)oc23)OC1(C)C | inactive: 0.656% |
| O=C1CC2C(=O)NCCN2C(=NC(=O)c2ccccc2)N1 (centres undefined) | inactive: -1.08% |
| C[C@H]1CN([C@@H](C)CO)C(=O)c2cccc(NC(=O)C3CC3)c2O[C@H]1CN(C)Cc1ccncc1 | inactive: 0.314% |

Some of the entries so far, comma-delimited:
Compound,"activity change, negative = inhibition"
Cc1ccc(CSc2ncnc3onc(C)c23)cc1,inactive: -0.218%
C[C@@H]1CCCCCCCCC(=O)OCCN(C(=O)OC(C)(C)C)[C@H](C)CCCCCCCCC(=O)OCCN(C(=O)OC(C)(C)C)[C@H](C)CCCCCCCCC(=O)OCCN1C(=O)OC(C)(C)C,inactive: 0.233%
